These are yes or no findings as the source states them, for the method shown. Some binding calls cover weakened binding; strength is not graded here.
Molecular target: HER2 S310F-Fc (homodimeric) (human)
Assay: yeast surface display of the scFv, titration with soluble HER2 S310F (23-652)-Fc, 0-200 nM, flow cytometry (MFI); clone 5 is CH15V

B1: CH15V scFv displayed on yeast (scFv, V domains shown)
VH: EVQLVESGGGLVQPGGSLRLSCAASGFTFSGNYIHWVRQAPGKGLEWVASIYSAGGYTDYADSVKGRFTISADTSKNTAYLQMNSLRAEDTAVYYCARYGVYTMHQYGSWEQMPAFDYWGQGTLVTVSS
VL: DIQMTQSPSSLSASVGDRVTITCRASQSVSSAVAWYQQKPGKAPKLLIYSASSLYSGVPSRFSGSRSGTDFTLTISSLQPEDFATYYCQQSSSSLITFGQGTKVEIKR
binding: binds

From patent US20260234287A1
